Counter-ions that a name gives are not always drawn. The list shows a part of the results. Single values are uncertain here, since repeats match poorly.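 In a drug-repurposing library screen, luminescence reads luciferase driven by eight TEAD-binding elements, stably integrated into human kidney-derived cells. Compounds scoring over five robust Z scores above the plate mean are called hits.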

The results in this text go back to the supplement of paper PMC10735217.

In the test the test system is HEK293A TEAD-LUC reporter. Description: TEAD-luciferase reporter activity (YAP activation), robust Z score vs plate; higher = stronger YAP/TEAD activation. The conditions noted are these: 24 h.

For `CCCCC1C(=O)N(CC2CCNCC2)CC2N(C(=O)CCc3c[nH]c4ccccc34)CCC(=O)N12` (centres undefined), the TEAD-luciferase reporter activity runs as follows: (compound concentration: 200 nM) inactive: -0.675; (compound concentration: 2 uM) inactive: -0.556; (compound concentration: 10 uM) inactive: 4.79.
Consider `O=c1cc(-c2ccccc2)n(-c2ccccc2)n1CCCN1CCN(c2ccccn2)CC1` [revenast], for which the TEAD-luciferase reporter activity by setting is: (compound concentration: 200 nM) inactive: 1.76; (compound concentration: 2 uM) inactive: 0.46; (compound concentration: 10 uM) inactive: -0.135.
For the compound `CC(C)(C)N1CCC(c2ccccc2)(c2ccccc2)CC1` [Budipine hydrochloride], the TEAD-luciferase reporter activity (compound concentration: 200 nM) is inactive: -1.18, the TEAD-luciferase reporter activity (compound concentration: 2 uM) was inactive: -0.106 and the TEAD-luciferase reporter activity (compound concentration: 10 uM) was inactive: 1.17.
On to `CCOc1nc2cccc(C(=O)O)c2n1Cc1ccc(-c2ccccc2-c2nnn[nH]2)cc1` [Candesartan], for which the TEAD-luciferase reporter activity is inactive: -1.34 (compound concentration: 200 nM) and inactive: 0.914 (compound concentration: 10 uM).
Turning to `CCOc1nc2cccc(C(=O)O)c2n1Cc1ccc(-c2ccccc2-c2nnn[nH]2)cc1` [Pharmaprojects No. 3549], where the note is “compound concentration: 2 uM”, the TEAD-luciferase reporter activity was inactive: -2.
Consider `CC[C@H](C)[C@H](NC(=O)[C@H](Cc1ccccc1)NC(=O)[C@H](CCC(=O)O)NC(=O)[C@H](CCCCN)NC(=O)[C@H](C)NC(=O)[C@H](C)NC(=O)[C@H](CCC(N)=O)NC(=O)CNC(=O)[C@H](CCC(=O)O)NC(=O)[C@H](CC(C)C)NC(=O)[C@H](Cc1ccc(O)cc1)NC(=O)[C@H](CO)NC(=O)[C@H](CO)NC(=O)[C@@H](NC(=O)[C@H](CC(=O)O)NC(=O)[C@H](CO)NC(=O)[C@@H](NC(=O)[C@H](Cc1ccccc1)NC(=O)[C@@H](NC(=O)CNC(=O)[C@H](CCC(=O)O)NC(=O)[C@H](C)NC(=O)[C@@H](N)Cc1c[nH]cn1)[C@@H](C)O)[C@@H](C)O)C(C)C)C(=O)N[C@@H](C)C(=O)N[C@@H](Cc1c[nH]c2ccccc12)C(=O)N[C@@H](CC(C)C)C(=O)N[C@H](C(=O)N[C@@H](CCCCN)C(=O)NCC(=O)N[C@@H](CCCNC(=N)N)C(=O)NCC(=O)O)C(C)C`, for which the TEAD-luciferase reporter activity is inactive: -0.844 (compound concentration: 200 nM), inactive: -0.877 (compound concentration: 2 uM) and inactive: 0.893 (compound concentration: 10 uM).
Take `Cc1nc(C)c(N(C)C)nc1C`: the TEAD-luciferase reporter activity was inactive: -1.39 (compound concentration: 200 nM), inactive: 0.238 (compound concentration: 2 uM) and inactive: 0.448 (compound concentration: 10 uM).
Consider `COc1ccc2c(c1)c(OC(C)C)c(C(=O)Nc1nnn[nH]1)n2-c1ccccc1`, for which the TEAD-luciferase reporter activity runs as follows: (compound concentration: 200 nM) inactive: -1.92; (compound concentration: 2 uM) inactive: -1.52; (compound concentration: 10 uM) inactive: 0.263.
The corresponding values for `CSCC[C@H](N)C(=O)O` [Methionine] are inactive: -0.761, inactive: -0.0272 and inactive: -1.38.
On the same counts, the results for `NC(N)=NS(=O)(=O)c1ccc(N)cc1` are inactive: -1.5, inactive: -1.75 and inactive: 0.63.
Consider `CC(C)CC(NC(=O)C(CCC(N)=O)NC(=O)C(CC(C)C)NC(=O)C(Cc1c[nH]c2ccccc12)NC(=O)C(Cc1cnc[nH]1)NC(=O)C(N)Cc1c[nH]c2ccccc12)C(=O)O` (centres undefined), for which the TEAD-luciferase reporter activity runs as follows: (compound concentration: 200 nM) inactive: -0.475; (compound concentration: 2 uM) inactive: -0.422; (compound concentration: 10 uM) inactive: 1.38.
On the same counts, the results for `N=C(N)c1ccc(CNC(=O)[C@@H]2CCN2C(=O)[C@H](NCC(=O)O)C2CCCCC2)cc1` [melagatran] are inactive: 0.241, inactive: 1.37 and inactive: -1.93.
As for `CCNC(=O)[C@@H]1CCCN1C(=O)[C@H](CCCNC(=N)N)NC(=O)[C@H](CC(C)C)NC(=O)[C@H](NC(=O)[C@H](Cc1ccc(O)cc1)NC(=O)[C@H](CO)NC(=O)[C@H](Cc1c[nH]c2ccccc12)NC(=O)[C@H](Cc1c[nH]cn1)NC(=O)[C@@H]1CCC(=O)N1)C(C)(C)C` [Lecirelin], the TEAD-luciferase reporter activity (compound concentration: 200 nM) is inactive: 3.76, the TEAD-luciferase reporter activity (compound concentration: 2 uM) was inactive: -1.28 and the TEAD-luciferase reporter activity (compound concentration: 10 uM) is inactive: -1.19.
On to `CC(C)[C@@H]1C(=O)N(S(C)(=O)=O)[C@@H]2CCN(C(=O)/C=C/CN3CCCCC3)[C@H]21`, for which the TEAD-luciferase reporter activity reads like this: (compound concentration: 200 nM) inactive: 0.0764; (compound concentration: 2 uM) inactive: -1.09; (compound concentration: 10 uM) inactive: -1.64.
With `CCc1ccc2c(-c3cncc(C)c3)cc(COC)nn12`, the TEAD-luciferase reporter activity (compound concentration: 200 nM) was inactive: -0.233 and the TEAD-luciferase reporter activity (compound concentration: 10 uM) is inactive: -0.278.
As for `CN1CCC(CNc2ccc3ncc(-c4cccc(OC(F)(F)F)c4)n3n2)CC1`, the TEAD-luciferase reporter activity was inactive: -0.923 (compound concentration: 200 nM), inactive: -1.53 (compound concentration: 2 uM) and inactive: -0.415 (compound concentration: 10 uM).
In the case of `CC1CC=NN1C(=O)c1cccnc1` (centres undefined), the TEAD-luciferase reporter activity by setting is: (compound concentration: 200 nM) inactive: -0.431; (compound concentration: 2 uM) inactive: -0.31; (compound concentration: 10 uM) inactive: -0.174.
On the same counts, the results for `N#CCC(=O)NN` are inactive: -0.477, inactive: -1.36 and inactive: -1.39.
On the same counts, the results for `Cc1ccccc1OCC(O)CN1CCCC1` (centres undefined) are inactive: -1.62, inactive: 1.28 and inactive: 1.12.
The corresponding values for `Nc1nc2c(ncn2[C@H]2CC(F)[C@@H](CO)O2)c(=O)[nH]1` (some centres undefined) [lagociclovir valactate] are inactive: -1.51, inactive: 0.00719 and inactive: 0.619.
On to `CO[C@@H](Cc1ccc(NCCCc2ccc(OS(C)(=O)=O)cc2)cc1)C(=O)O`, for which the TEAD-luciferase reporter activity is, setting by setting: (compound concentration: 200 nM) inactive: 0.951; (compound concentration: 2 uM) inactive: -1.22; (compound concentration: 10 uM) inactive: -1.56.
For `CCCCCCCCCCCCCCCC[N+](C)(C)Cc1ccccc1`, the TEAD-luciferase reporter activity is, setting by setting: (compound concentration: 200 nM) inactive: 0.0898; (compound concentration: 2 uM) inactive: 0.0977; (compound concentration: 10 uM) inactive: 1.08.
`CN1CCC(COc2cnc(-c3cccc(Cn4nc(-c5cccc(C#N)c5)ccc4=O)c3)nc2)CC1` [Tepotinib]: the TEAD-luciferase reporter activity was inactive: -0.977 (compound concentration: 200 nM), inactive: -0.61 (compound concentration: 2 uM) and inactive: -1.37 (compound concentration: 10 uM).
As to `CN(C)C(=O)COC(=O)Cc1ccc(OC(=O)c2ccc(NC(=N)N)cc2)cc1` [Camostat mesylate], the TEAD-luciferase reporter activity is inactive: -0.941 (compound concentration: 200 nM), inactive: -0.395 (compound concentration: 2 uM) and inactive: -0.0062 (compound concentration: 10 uM).
Consider `CN(C)C(=O)COC(=O)Cc1ccc(OC(=O)c2ccc(NC(=N)N)cc2)cc1`, for which the TEAD-luciferase reporter activity (compound concentration: 2 uM) was inactive: -0.906.
